What all share (experiment): co-IP
For assay [1], the target named is T1, C497R-FBXL6 flag (human) (UniProt Q8N531).
T1 sequence: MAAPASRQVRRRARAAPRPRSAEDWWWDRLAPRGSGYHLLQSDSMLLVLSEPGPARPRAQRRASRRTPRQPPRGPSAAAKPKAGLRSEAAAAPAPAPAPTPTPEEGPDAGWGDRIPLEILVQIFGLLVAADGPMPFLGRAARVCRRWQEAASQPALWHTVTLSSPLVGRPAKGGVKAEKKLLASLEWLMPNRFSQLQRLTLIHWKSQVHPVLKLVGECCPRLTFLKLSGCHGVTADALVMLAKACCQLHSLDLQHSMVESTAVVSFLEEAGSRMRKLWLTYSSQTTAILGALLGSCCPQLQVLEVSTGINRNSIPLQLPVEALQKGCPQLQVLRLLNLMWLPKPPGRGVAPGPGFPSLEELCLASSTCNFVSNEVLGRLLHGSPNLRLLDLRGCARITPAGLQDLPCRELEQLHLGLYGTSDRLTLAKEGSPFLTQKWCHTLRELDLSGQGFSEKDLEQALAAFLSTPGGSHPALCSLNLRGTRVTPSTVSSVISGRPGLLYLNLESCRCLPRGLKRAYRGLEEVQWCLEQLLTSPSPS

By UniProt entry, the sequences of proteins in these tests, tags left out. Where a name states a change or a piece, a line headed by the entry shows the natural chain unless it says otherwise.
UniProt P63208, whole entry: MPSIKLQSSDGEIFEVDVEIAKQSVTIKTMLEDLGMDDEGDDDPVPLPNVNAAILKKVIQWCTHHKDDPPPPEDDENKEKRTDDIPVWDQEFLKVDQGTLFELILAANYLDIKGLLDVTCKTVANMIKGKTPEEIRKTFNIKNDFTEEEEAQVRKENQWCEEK
UniProt P0DMV8, whole entry: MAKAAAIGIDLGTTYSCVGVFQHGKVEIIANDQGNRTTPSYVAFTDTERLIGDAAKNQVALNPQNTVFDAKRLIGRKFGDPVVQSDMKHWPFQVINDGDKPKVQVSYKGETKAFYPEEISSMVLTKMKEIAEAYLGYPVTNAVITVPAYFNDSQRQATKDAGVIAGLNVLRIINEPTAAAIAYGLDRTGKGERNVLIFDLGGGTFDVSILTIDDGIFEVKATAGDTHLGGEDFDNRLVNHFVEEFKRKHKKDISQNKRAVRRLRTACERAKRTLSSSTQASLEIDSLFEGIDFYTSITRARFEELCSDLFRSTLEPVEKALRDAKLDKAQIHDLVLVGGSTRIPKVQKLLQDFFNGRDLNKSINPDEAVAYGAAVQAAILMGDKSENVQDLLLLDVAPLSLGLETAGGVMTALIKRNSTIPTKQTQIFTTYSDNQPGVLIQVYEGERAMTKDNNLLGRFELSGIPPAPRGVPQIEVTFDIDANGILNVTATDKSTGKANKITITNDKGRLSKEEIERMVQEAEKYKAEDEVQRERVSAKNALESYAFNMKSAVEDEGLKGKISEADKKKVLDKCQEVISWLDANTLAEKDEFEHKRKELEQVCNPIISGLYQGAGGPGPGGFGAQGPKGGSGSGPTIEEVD

The target in assay [2] is T2, FBXL4-Flag (F-box/LRR-repeat protein 4) (UniProt Q9UKA2).
T2 sequence: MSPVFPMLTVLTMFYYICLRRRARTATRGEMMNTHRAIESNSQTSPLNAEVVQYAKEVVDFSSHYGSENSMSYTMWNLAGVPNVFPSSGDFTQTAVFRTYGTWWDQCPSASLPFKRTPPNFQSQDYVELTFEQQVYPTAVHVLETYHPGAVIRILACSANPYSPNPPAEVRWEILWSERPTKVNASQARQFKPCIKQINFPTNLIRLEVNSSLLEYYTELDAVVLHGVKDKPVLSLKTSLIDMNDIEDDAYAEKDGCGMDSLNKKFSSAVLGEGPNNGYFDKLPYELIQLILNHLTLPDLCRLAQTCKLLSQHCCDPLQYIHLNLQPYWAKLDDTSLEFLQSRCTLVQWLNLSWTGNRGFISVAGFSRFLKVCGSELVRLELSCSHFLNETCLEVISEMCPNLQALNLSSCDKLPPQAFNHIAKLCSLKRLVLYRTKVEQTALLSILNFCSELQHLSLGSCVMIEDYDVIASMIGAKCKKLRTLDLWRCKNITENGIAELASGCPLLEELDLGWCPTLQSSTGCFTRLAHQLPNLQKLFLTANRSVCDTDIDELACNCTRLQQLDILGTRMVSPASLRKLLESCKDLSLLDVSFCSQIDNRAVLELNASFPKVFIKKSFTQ

Assay [3] concerns the target T3, FBXL6-Flag (F-box/LRR-repeat protein 6, wild type) (human) (UniProt Q8N531).
T3 sequence: T1 sequence with R497C

For assay [4], the target named is T3, FBXL6-Flag (F-box/LRR-repeat protein 6, wild type) (human). The source holds these as a separate data set.

Numbering of substitutions follows the chain as printed. Where two headings read alike, the source gives them in different places. No constants are given. Whether binding was seen depends on the method and setting. In cells and extracts the contact can be indirect. Some entries that bind do so weakly or less than the wild type. Tags and fused reporters may be left off the sequences shown.

For the molecule SKP1 (from UniProt P63208 1-163), the binding result in assay [1], in assay [2] and in assay [3] was “binds” each time.

As for “HSPA1A (heat shock protein A1A) (from UniProt P0DMV8 1-641)”, the binding entry in assay [1], in assay [2] and in assay [3] was “binds” each time.

B1: NEMF (protein, UniProt O60524 1-1076)
chain: MKSRFSTIDLRAVLAELNASLLGMRVNNVYDVDNKTYLIRLQKPDFKATLLLESGIRIHTTEFEWPKNMMPSSFAMKCRKHLKSRRLVSAKQLGVDRIVDFQFGSDEAAYHLIIELYDRGNIVLTDYEYVILNILRFRTDEADDVKFAVRERYPLDHARAAEPLLTLERLTEIVASAPKGELLKRVLNPLLPYGPALIEHCLLENGFSGNVKVDEKLETKDIEKVLVSLQKAEDYMKTTSNFSGKGYIIQKREIKPSLEADKPVEDILTYEEFHPFLFSQHSQCPYIEFESFDKAVDEFYSKIEGQKIDLKALQQEKQALKKLDNVRKDHENRLEALQQAQEIDKLKGELIEMNLQIVDRAIQVVRSALANQIDWTEIGLIVKEAQAQGDPVASAIKELKLQTNHVTMLLRNPYLLSEEEDDDVDGDVNVEKNETEPPKGKKKKQKNKQLQKPQKNKPLLVDVDLSLSAYANAKKYYDHKRYAAKKTQKTVEAAEKAFKSAEKKTKQTLKEVQTVTSIQKARKVYWFEKFLWFISSENYLIIGGRDQQQNEIIVKRYLTPGDIYVHADLHGATSCVIKNPTGEPIPPRTLTEAGTMALCYSAAWDARVITSAWWVYHHQVSKTAPTGEYLTTGSFMIRGKKNFLPPSYLMMGFSFLFKVDESCVWRHQGERKVRVQDEDMETLASCTSELISEEMEQLDGGDTSSDEDKEEHETPVEVELMTQVDQEDITLQSGRDELNEELIQEESSEDEGEYEEVRKDQDSVGEMKDEGEETLNYPDTTIDLSHLQPQRSIQKLASKEESSNSSDSKSQSRRHLSAKERREMKKKKLPSDSGDLEALEGKDKEKESTVHIETHQNTSKNVAAVQPMKRGQKSKMKKMKEKYKDQDEEDRELIMKLLGSAGSNKEEKGKKGKKGKTKDEPVKKQPQKPRGGQRVSDNIKKETPFLEVITHELQDFAVDDPHDDKEEQDLDQQGNEENLFDSLTGQPHPEDVLLFAIPICAPYTTMTNYKYKVKLTPGVQKKGKAAKTALNSFMHSKEATAREKDLFRSVKDTDLSRNIPGKVKVSAPNLLNVKRK
With B1, the binding result in assay [4] was “binds”.

B2: ZNF598 (protein, UniProt Q86UK7 1-904)
chain: MAAAGGAEGRRAALEAAAAAAPERGGGSCVLCCGDLEATALGRCDHPVCYRCSTKMRVLCEQRYCAVCREELRQVVFGKKLPAFATIPIHQLQHEKKYDIYFADGKVYALYRQLLQHECPRCPELPPFSLFGDLEQHMRRQHELFCCRLCLQHLQIFTYERKWYSRKDLARHRMQGDPDDTSHRGHPLCKFCDERYLDNDELLKHLRRDHYFCHFCDSDGAQDYYSDYAYLREHFREKHFLCEEGRCSTEQFTHAFRTEIDLKAHRTACHSRSRAEARQNRHIDLQFSYAPRHSRRNEGVVGGEDYEEVDRYSRQGRVARAGTRGAQQSRRGSWRYKREEEDREVAAAVRASVAAQQQEEARRSEDQEEGGRPKKEEAAARGPEDPRGPRRSPRTQGEGPGPKETSTNGPVSQEAFSVTGPAAPGCVGVPGALPPPSPKLKDEDFPSLSASTSSSCSTAATPGPVGLALPYAIPARGRSAFQEEDFPALVSSVPKPGTAPTSLVSAWNSSSSSKKVAQPPLSAQATGSGQPTRKAGKGSRGGRKGGPPFTQEEEEDGGPALQELLSTRPTGSVSSTLGLASIQPSKVGKKKKVGSEKPGTTLPQPPPATCPPGALQAPEAPASRAEGPVAVVVNGHTEGPAPARSAPKEPPGLPRPLGSFPCPTPQEDFPALGGPCPPRMPPPPGFSAVVLLKGTPPPPPPGLVPPISKPPPGFSGLLPSPHPACVPSPATTTTTKAPRLLPAPRAYLVPENFRERNLQLIQSIRDFLQSDEARFSEFKSHSGEFRQGLISAAQYYKSCRDLLGENFQKVFNELLVLLPDTAKQQELLSAHTDFCNREKPLSTKSKKNKKSAWQATTQQAGLDCRVCPTCQQVLAHGDASSHQALHAARDDDFPSLQAIARIIT
Turning to B2, the binding result in assay [4] is “binds”.
